Data: the supplement of paper PMC8728848
The list shows a part of the results.

Legend:
Test in all cases: glycan array binding signal (z-score within array); higher = stronger binding
Settings in all cases: glycan notation: IUPAC condensed, linker removed
[1] = target: GalNAc(b1-4)GlcNAc
How it was run: (§1)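 The Consortium for Functional Glycomics database supplied 3228 glycan arrays, of which those lacking an available protein sequence were dropped. The binding signal, a within-array Z-score, was averaged across arrays of the same protein sequence and across linkers. Negative scores can be read as non-binding.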

[2] = target: GalNAc(b1-4)GlcNAc(b1-2)Man
How it was run: as §1

[3] = target: GalNAc(b1-4)GlcNAc(b1-2)Man(a1-3)[GalNAc(b1-4)GlcNAc(b1-2)Man(a1-6)]Man(b1-4)GlcNAc(b1-4)GlcNAc
How it was run: as §1

[4] = target: GalNAc(b1-4)GlcNAc(b1-3)GalNAc(b1-4)GlcNAc
How it was run: as §1

[5] = target: GalNAc(b1-4)GlcNAc6S
How it was run: as §1

[6] = target: GalNAc(b1-6)GalNAc
How it was run: as §1

[7] = target: GalNAc3S(b1-4)GlcNAc
How it was run: as §1

[8] = target: GalNAc3S(b1-4)GlcNAc3S
How it was run: as §1

[9] = target: GalNAc3S(b1-4)[Fuc(a1-3)]GlcNAc
How it was run: as §1

[10] = target: GalNAc4S6S(b1-4)GlcNAc
How it was run: as §1

[11] = target: GalNAc6S(b1-4)GlcNAc
How it was run: as §1

[12] = target: Glc(a1-4)Glc
How it was run: as §1

[13] = target: Glc(a1-4)Glc(a1-4)Glc(a1-4)Glc
How it was run: as §1

[14] = target: Glc(a1-6)Glc(a1-6)Glc
How it was run: as §1

[15] = target: Glc(a1-6)Glc(a1-6)Glc(a1-6)Glc
How it was run: as §1

[16] = target: Glc(b1-4)Glc
How it was run: as §1

[17] = target: Glc(b1-6)Glc
How it was run: as §1

[18] = target: GlcA(b1-3)Gal
How it was run: as §1

[19] = target: GlcA(b1-3)GlcNAc
How it was run: as §1

[20] = target: GlcA(b1-6)Gal
How it was run: as §1

[21] = target: GlcA3S(b1-3)Gal(b1-4)GlcNAc(b1-2)Man
How it was run: as §1

[22] = target: GlcA3S(b1-3)Gal(b1-4)GlcNAc(b1-3)Gal(b1-4)Glc
How it was run: as §1

[23] = target: GlcNAc(a1-3)Gal(b1-4)GlcNAc
How it was run: as §1

[24] = target: GlcNAc(a1-4)Gal(b1-3)GlcNAc
How it was run: as §1

[25] = target: GlcNAc(a1-4)Gal(b1-4)GalNAc
How it was run: as §1

[26] = target: GlcNAc(a1-4)Gal(b1-4)GlcNAc
How it was run: as §1

[27] = target: GlcNAc(a1-4)Gal(b1-4)GlcNAc(b1-3)Gal(b1-4)Glc
How it was run: as §1

[28] = target: GlcNAc(a1-4)Gal(b1-4)GlcNAc(b1-3)Gal(b1-4)GlcNAc
How it was run: as §1

[29] = target: GlcNAc(a1-4)Gal(b1-4)GlcNAc(b1-3)Gal(b1-4)GlcNAc(b1-3)Gal(b1-4)GlcNAc
How it was run: as §1

[30] = target: GlcNAc(a1-4)Gal(b1-4)GlcNAc(b1-3)Gal(b1-4)[Fuc(a1-3)]GlcNAc(b1-3)Gal(b1-4)[Fuc(a1-3)]GlcNAc
How it was run: as §1

[31] = target: GlcNAc(a1-6)Gal(b1-4)GlcNAc
How it was run: as §1

[32] = target: GlcNAc(b1-2)Gal(b1-3)GalNAc
How it was run: as §1

[33] = target: GlcNAc(b1-2)Man(a1-3)[GlcNAc(b1-2)Man(a1-6)]Man(b1-4)GlcNAc(b1-4)GlcNAc
How it was run: as §1

[34] = target: GlcNAc(b1-2)Man(a1-3)[GlcNAc(b1-2)Man(a1-6)]Man(b1-4)GlcNAc(b1-4)[Fuc(a1-6)]GlcNAc
How it was run: as §1

[35] = target: GlcNAc(b1-2)Man(a1-3)[GlcNAc(b1-4)][GlcNAc(b1-2)Man(a1-6)]Man(b1-4)GlcNAc(b1-4)GlcNAc
How it was run: as §1

[36] = target: GlcNAc(b1-2)Man(a1-3)[GlcNAc(b1-4)][GlcNAc(b1-2)Man(a1-6)]Man(b1-4)GlcNAc(b1-4)[Fuc(a1-6)]GlcNAc
How it was run: as §1

[37] = target: GlcNAc(b1-2)[GlcNAc(b1-4)]Man(a1-3)[GlcNAc(b1-2)Man(a1-6)]Man(b1-4)GlcNAc(b1-4)GlcNAc
How it was run: as §1

[38] = target: GlcNAc(b1-2)[GlcNAc(b1-4)]Man(a1-3)[GlcNAc(b1-4)][GlcNAc(b1-2)Man(a1-6)]Man(b1-4)GlcNAc(b1-4)GlcNAc
How it was run: as §1

[39] = target: GlcNAc(b1-2)[GlcNAc(b1-4)]Man(a1-3)[GlcNAc(b1-4)][GlcNAc(b1-2)[GlcNAc(b1-6)]Man(a1-6)]Man(b1-4)GlcNAc(b1-4)GlcNAc
How it was run: as §1

[40] = target: GlcNAc(b1-2)[GlcNAc(b1-4)]Man(a1-3)[GlcNAc(b1-4)][GlcNAc(b1-2)[GlcNAc(b1-6)]Man(a1-6)]Man(b1-4)GlcNAc(b1-4)[Fuc(a1-6)]GlcNAc
How it was run: as §1

[41] = target: GlcNAc(b1-2)[GlcNAc(b1-6)]Man(a1-6)[GlcNAc(b1-2)Man(a1-3)]Man(b1-4)GlcNAc(b1-4)GlcNAc
How it was run: as §1

[42] = target: GlcNAc(b1-2)[GlcNAc(b1-6)]Man(a1-6)[GlcNAc(b1-2)Man(a1-3)]Man(b1-4)GlcNAc(b1-4)[Fuc(a1-6)]GlcNAc
How it was run: as §1

[43] = target: GlcNAc(b1-2)[GlcNAc(b1-6)]Man(a1-6)[GlcNAc(b1-4)][GlcNAc(b1-2)Man(a1-3)]Man(b1-4)GlcNAc(b1-4)GlcNAc
How it was run: as §1

[44] = target: GlcNAc(b1-3)Fuc
How it was run: as §1

[45] = target: GlcNAc(b1-3)Gal
How it was run: as §1

B1: Epa19 (Candida glabrata) (protein)
chain: MGSSHHHHHHSSGLVPRGSHMASSKDPTRFPIGCSPQVLKTQPGLAVKLYSYGHPVPGCSYITYQYPDFPRSGYKKERKLADITGVNGKIDIDLKPNDPCRVLTGHLPSNYNYPDTLTYTNFTMILYGYFQPKVTGYHTFNLEADDLLFMNLGAGNAFDCCKAESTLDNFGNYQSYSLWGSDYAKANITVFLVSGVYYPIRLFYVNRDNNAVIDFSFTTEFDKEKVHDFTSYFFSASDGEQCPGSV
glycan array binding signal (z-score) [1]: 0.542 | glycan array binding signal (z-score) [2]: -1.37 | glycan array binding signal (z-score) [3]: -0.525 | glycan array binding signal (z-score) [4]: 0.743 | glycan array binding signal (z-score) [5]: 0.606 | glycan array binding signal (z-score) [6]: -0.738 | glycan array binding signal (z-score) [7]: 0.47 | glycan array binding signal (z-score) [8]: 0.771 | glycan array binding signal (z-score) [9]: -0.282 | glycan array binding signal (z-score) [10]: 1.04 | glycan array binding signal (z-score) [11]: -0.279 | glycan array binding signal (z-score) [12]: -0.715 | glycan array binding signal (z-score) [13]: 0.084 | glycan array binding signal (z-score) [14]: 0.064 | glycan array binding signal (z-score) [15]: 0.03 | glycan array binding signal (z-score) [16]: -1.04 | glycan array binding signal (z-score) [17]: -0.409 | glycan array binding signal (z-score) [18]: 1.5 | glycan array binding signal (z-score) [19]: -0.2 | glycan array binding signal (z-score) [20]: -0.286 | glycan array binding signal (z-score) [21]: 1.28 | glycan array binding signal (z-score) [22]: -0.378 | glycan array binding signal (z-score) [23]: -0.501 | glycan array binding signal (z-score) [24]: -0.113 | glycan array binding signal (z-score) [25]: -0.434 | glycan array binding signal (z-score) [26]: 0.311 | glycan array binding signal (z-score) [27]: 0.565 | glycan array binding signal (z-score) [28]: 0.576 | glycan array binding signal (z-score) [29]: -0.551 | glycan array binding signal (z-score) [30]: 0.046 | glycan array binding signal (z-score) [31]: -0.568 | glycan array binding signal (z-score) [32]: -0.4 | glycan array binding signal (z-score) [33]: -0.104 | glycan array binding signal (z-score) [34]: -0.259 | glycan array binding signal (z-score) [35]: 0.2 | glycan array binding signal (z-score) [36]: -0.242 | glycan array binding signal (z-score) [37]: -0.408 | glycan array binding signal (z-score) [38]: -0.548 | glycan array binding signal (z-score) [39]: -0.443 | glycan array binding signal (z-score) [40]: 0.566 | glycan array binding signal (z-score) [41]: -0.103 | glycan array binding signal (z-score) [42]: -0.413 | glycan array binding signal (z-score) [43]: -1.05 | glycan array binding signal (z-score) [44]: -0.043 | glycan array binding signal (z-score) [45]: -1.24
